The values that follow come from PMC10575729.

By UniProt entry, the sequences of proteins in these tests, tags left out.
UniProt Q9H4Z3: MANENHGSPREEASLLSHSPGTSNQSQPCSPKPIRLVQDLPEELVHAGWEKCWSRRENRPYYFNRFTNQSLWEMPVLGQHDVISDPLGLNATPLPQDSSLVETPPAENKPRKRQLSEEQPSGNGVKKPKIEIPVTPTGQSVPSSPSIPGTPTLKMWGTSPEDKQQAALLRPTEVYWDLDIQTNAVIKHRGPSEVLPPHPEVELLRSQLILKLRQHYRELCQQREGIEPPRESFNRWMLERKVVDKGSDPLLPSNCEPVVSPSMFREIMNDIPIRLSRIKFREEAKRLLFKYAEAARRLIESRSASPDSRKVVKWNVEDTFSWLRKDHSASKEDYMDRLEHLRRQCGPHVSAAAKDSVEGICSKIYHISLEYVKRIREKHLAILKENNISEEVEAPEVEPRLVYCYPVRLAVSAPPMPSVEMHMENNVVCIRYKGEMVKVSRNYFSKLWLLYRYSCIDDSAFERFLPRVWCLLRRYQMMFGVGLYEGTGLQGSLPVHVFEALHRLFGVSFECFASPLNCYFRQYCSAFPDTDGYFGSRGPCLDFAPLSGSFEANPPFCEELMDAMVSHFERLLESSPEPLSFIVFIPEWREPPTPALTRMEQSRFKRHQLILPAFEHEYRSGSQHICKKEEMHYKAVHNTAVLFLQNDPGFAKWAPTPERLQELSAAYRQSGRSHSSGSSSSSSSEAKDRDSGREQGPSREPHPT

In this assay the target is Phosphorylated RNA polymerase II CTD-interacting factor 1 (PCIF1), endogenous (human (endogenous in SCC25)) (UniProt Q9H4Z3). The assay is described as follows: affinity purification with mass spectrometry; endogenous PCIF1 precipitated with a specific antibody from SCC25 cells, replicates, IgG control; MS-iTRAQ / LC-MS/MS of gel bands.

These are yes or no findings as the source states them, for the method shown. Binding seen in cells or lysates may run through a third protein. These calls come from enrichment with a bait or labelling near it, and not all partners need be listed.

Regarding “C-terminal binding protein 2 (CTBP2), endogenous (from UniProt P56545 1-445)”, the binding result was “binds”.
